The labels stand for the following.
T1: N-cadherin GFP11 (chick, UniProt P10288 165-912)
T1 construct: Synthesized by GenScript; also called N-cad GFP11; N-cad GFP 11; source: CHO cells, transfected, in cells; chick embryo, electroporated in ovo into trigeminal placode cells; not shown: split GFP subunit 11 (GFP11), N-terminal, kept
T1 sequence (looked up): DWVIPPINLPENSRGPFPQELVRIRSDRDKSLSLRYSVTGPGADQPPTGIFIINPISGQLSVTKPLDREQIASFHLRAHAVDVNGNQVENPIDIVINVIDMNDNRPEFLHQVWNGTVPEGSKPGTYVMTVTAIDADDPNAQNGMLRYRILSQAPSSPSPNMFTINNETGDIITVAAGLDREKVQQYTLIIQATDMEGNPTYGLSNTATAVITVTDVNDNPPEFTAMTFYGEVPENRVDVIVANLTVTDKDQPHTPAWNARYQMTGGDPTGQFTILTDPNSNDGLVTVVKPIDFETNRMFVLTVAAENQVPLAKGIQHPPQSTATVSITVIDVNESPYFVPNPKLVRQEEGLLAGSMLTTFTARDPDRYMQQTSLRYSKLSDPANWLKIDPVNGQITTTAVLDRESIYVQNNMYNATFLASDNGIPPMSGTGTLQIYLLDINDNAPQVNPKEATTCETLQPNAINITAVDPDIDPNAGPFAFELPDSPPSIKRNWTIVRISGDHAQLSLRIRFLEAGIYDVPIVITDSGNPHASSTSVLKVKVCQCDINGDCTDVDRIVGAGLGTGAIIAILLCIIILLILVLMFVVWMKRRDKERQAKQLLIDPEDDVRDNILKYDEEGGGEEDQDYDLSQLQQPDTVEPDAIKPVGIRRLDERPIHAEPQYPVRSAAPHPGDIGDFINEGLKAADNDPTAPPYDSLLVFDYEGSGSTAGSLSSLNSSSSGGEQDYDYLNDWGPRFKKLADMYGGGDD

B1: N-cadherin GFP1-10 (natural protein, chick, UniProt P10288 165-912, looked up)
chain: T1 sequence (looked up)
notes: Synthesized by GenScript; also called N-cad GFP1-10; N-cad GFP 1-10; source: CHO cells, transfected, in cells; chick embryo, electroporated in ovo into trigeminal placode cells; not shown: split GFP subunits 1-10 (GFP1-10), N-terminal, kept
B2: Cadherin-7 (protein, UniProt Q90763 48-785)
chain: SWVWNQFFVLEEYMGSDPLYVGKLHSDVDKGDGSIKYILSGEGASSIFIIDENTGDIHATKRLDREEQAYYTLRAQAHDRLTNKPVEPESEFVIKIQDINDNEPKFLDGPYTAGVPEMSPVGTSVVQVTATDADDPTYGNSARVVYSILQGQPYFSVEPKTGIIKTALPNMDREAKDQYLLVIQAKDMVGQNGGLSGTTSVTVTLTDVNDNPPRFPRRSYQYNVPESLPLASVVARIKAADADVGPNAEMEYKIVDGDGLGVFKISVDKDTQEGIITIQKELDFEAKTSYTLRIEAANMHVDPRFLSLGPFSDMTTVKIIVEDVDEPPVFTSRLYSMVVSEAAKVGTIIGTVAAHDPDASNSPVRYSIDRNTDLERYFNIDANSGVITTAKSLDRETNAVHNITVLAMESQNPAQIGRGYVAITILDINDNAPEFAMEYETTVCENAQPGQIIQKISAIDKDDPPNGHQFYFSLTAEAANNHNFTLQDNKDNTATVLTRRNGFRRQEQSVFYLPIFIVDSGSPSLSSTNTLTIRVCDCDADGIAQTCNAEAYILPAGLSTGALIAILACVLTLLVLVLLIVTMRRRKKEPLIFDEERDIRENIVRYDDEGGGEEDTEAFDMAALRNLNIIRDTKTRRDVTPEIQFLSRPTFKSIPDNVIFREFIWERLKEADVDPCAPPYDSLQTYAFEGNGSVAESLSSLDSISSNSDQNYDYLSDWGPRFKRLADMYGSGPDCLYS
B3: Cadherin-7 GFP1-10 (natural protein, chick, UniProt Q90763 48-785, looked up)
chain: B2 chain
notes: Synthesized by GenScript; also called Cad7 GFP1-10; source: CHO cells, transfected, in cells; chick embryo, electroporated in ovo into premigratory neural crest cells; not shown: split GFP subunits 1-10 (GFP1-10), N-terminal, kept
B4: Cadherin-7 GFP11 (natural protein, chick, UniProt Q90763 48-785, looked up)
chain: B2 chain
notes: Synthesized by GenScript; also called Cad7 GFP11; Cad711; source: CHO cells, transfected, in cells; chick embryo, electroporated in ovo into premigratory neural crest cells; not shown: split GFP subunit 11 (GFP11), N-terminal, kept

No constants are given. Whether binding was seen depends on the method and setting. In cells and extracts the contact can be indirect. Some results given as binding are weak or reduced against the parent protein; the word gives no strength. For some assays here: Where a sequence is shown, tags or fusion partners need not be part of it.

Experiment [1] has as its target T1, N-cadherin GFP11. In words: split reporter; GRASP (split GFP1-10 / GFP11 on the cadherin extracellular domain); both constructs co-transfected into CHO cells (in cis); GFP fluorescence by confocal imaging, GFP+ cells/DAPI+ cells.
The target of experiment [2] is T1, N-cadherin GFP11. As to the kind of experiment: split reporter; GRASP in vivo, in cis: co-electroporation of both N-cadherin split GFP constructs into trigeminal placode cells of chick embryos; GFP on transverse sections, GFP+ cells/N-cad+ cells.
Experiment [3] concerns the target neural cadherin (N-cadherin) (chick (endogenous in trigeminal ganglia of HH15-16 embryos)) (UniProt P10288). As to the kind of experiment: co-IP; lysate of dissected HH15-16 chick trigeminal ganglia (50 mM Tris pH 8.0, 150 mM NaCl, 1% IGEPAL CA-630); IP with rabbit polyclonal N-cadherin antibody overnight at 4°C, protein A/G magnetic beads; immunoblot for Cadherin-7; normal rabbit IgG as control. Background: A western blot detects proteins with antibodies after separation by electrophoresis.

Experiment [4] has as its target T1, N-cadherin GFP11. In words: split reporter; GRASP in vivo, in trans: sequential in ovo electroporation of a Cadherin-7 split GFP construct into premigratory neural crest cells and of the complementary N-cadherin split GFP construct into trigeminal placode cells of chick embryos; GFP on transverse sections of the trigeminal ganglion at ….
For the experiment “Cadherin-7 GFP11”, the target named is B4. In words: split reporter; GRASP (split GFP1-10 / GFP11 on the cadherin extracellular domain); both constructs co-transfected into CHO cells (in cis); GFP fluorescence by confocal imaging, GFP+ cells/DAPI+ cells.
Experiment [5] deals with B1. As to the kind of experiment: split reporter; GRASP in vivo, in trans: sequential in ovo electroporation of a Cadherin-7 split GFP construct into premigratory neural crest cells and of the complementary N-cadherin split GFP construct into trigeminal placode cells of chick embryos; GFP on transverse sections of the trigeminal ganglion at ….
Experiment [6] deals with B1. In words: split reporter; GRASP (split GFP1-10 / GFP11 on the cadherin extracellular domain); both constructs co-transfected into CHO cells (in cis); GFP fluorescence by confocal imaging, GFP+ cells/DAPI+ cells.

On to B1, for which the binding result in the experiment with N-cadherin GFP11 [1] and with N-cadherin GFP11 [2] was “binds” each time.
B2: the binding entry in experiment [3] was “binds”.
B3: the binding entry in the experiment with N-cadherin GFP11 [4], with N-cadherin GFP11 [1] and with Cadherin-7 GFP11 was “binds” throughout.
On to B4, for which the binding entry with N-cadherin GFP1-10 [5] and with N-cadherin GFP1-10 [6] was “binds” each time.

These data come from article PMC9475207, “Neural crest cell-placodal neuron interactions are mediated by Cadherin-7 and N-cadherin during early chick trigeminal ganglion assembly” (F1000Research, 2022).
